From the supplement of paper PMC10849652 come the findings set out here.

Chains of the proteins cited; added tags and fusions are not shown. Lines headed by an entry give the natural chain unless they say otherwise; changes in a name come on top.
UniProt Q92600, whole entry, looked up: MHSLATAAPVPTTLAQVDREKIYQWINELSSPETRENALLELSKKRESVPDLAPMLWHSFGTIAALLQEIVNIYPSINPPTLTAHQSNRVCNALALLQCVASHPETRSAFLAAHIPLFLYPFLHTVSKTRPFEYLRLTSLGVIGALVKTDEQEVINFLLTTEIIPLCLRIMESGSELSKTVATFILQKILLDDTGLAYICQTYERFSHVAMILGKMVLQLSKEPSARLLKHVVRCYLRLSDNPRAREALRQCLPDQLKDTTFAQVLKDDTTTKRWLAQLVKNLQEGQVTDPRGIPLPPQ
UniProt Q9Y678: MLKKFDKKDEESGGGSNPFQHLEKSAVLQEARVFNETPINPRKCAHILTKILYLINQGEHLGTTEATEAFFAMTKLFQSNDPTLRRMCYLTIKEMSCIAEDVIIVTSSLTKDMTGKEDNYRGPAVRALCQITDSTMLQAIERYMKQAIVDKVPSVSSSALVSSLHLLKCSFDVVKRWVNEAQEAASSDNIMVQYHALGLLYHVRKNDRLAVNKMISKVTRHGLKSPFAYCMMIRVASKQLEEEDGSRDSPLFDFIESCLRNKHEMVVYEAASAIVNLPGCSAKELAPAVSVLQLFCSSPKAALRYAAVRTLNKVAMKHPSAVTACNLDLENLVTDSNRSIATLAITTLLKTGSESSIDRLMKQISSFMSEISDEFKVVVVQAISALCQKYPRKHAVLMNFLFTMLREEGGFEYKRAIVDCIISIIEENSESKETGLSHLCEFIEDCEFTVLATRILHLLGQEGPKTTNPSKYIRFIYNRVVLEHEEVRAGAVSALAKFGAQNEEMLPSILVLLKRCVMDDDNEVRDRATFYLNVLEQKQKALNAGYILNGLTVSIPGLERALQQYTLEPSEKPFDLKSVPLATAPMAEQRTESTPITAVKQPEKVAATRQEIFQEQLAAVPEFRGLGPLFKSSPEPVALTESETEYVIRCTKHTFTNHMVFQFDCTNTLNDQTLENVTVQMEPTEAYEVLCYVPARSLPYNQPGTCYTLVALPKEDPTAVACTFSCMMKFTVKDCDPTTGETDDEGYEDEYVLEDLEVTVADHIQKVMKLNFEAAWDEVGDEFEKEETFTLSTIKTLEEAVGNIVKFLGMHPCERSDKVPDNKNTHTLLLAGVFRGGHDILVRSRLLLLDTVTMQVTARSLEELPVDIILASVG
UniProt P09543: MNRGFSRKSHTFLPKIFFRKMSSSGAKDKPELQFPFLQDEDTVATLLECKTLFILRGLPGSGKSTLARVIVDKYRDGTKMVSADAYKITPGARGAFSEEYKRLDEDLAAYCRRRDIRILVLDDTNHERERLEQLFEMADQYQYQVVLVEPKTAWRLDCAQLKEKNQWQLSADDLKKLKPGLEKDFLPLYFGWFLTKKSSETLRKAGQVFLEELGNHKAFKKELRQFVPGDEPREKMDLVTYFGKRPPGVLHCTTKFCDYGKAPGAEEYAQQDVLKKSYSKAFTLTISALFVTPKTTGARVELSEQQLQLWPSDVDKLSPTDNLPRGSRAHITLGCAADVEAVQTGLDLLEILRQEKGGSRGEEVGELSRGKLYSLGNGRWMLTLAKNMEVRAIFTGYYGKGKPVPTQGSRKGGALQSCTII
UniProt Q86VX2, whole entry, looked up: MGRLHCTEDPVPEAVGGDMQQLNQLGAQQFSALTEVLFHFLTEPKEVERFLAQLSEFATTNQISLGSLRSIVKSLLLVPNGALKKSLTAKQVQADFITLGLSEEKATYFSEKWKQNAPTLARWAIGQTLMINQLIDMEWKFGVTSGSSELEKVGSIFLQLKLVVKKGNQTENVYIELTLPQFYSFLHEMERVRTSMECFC
UniProt P53621: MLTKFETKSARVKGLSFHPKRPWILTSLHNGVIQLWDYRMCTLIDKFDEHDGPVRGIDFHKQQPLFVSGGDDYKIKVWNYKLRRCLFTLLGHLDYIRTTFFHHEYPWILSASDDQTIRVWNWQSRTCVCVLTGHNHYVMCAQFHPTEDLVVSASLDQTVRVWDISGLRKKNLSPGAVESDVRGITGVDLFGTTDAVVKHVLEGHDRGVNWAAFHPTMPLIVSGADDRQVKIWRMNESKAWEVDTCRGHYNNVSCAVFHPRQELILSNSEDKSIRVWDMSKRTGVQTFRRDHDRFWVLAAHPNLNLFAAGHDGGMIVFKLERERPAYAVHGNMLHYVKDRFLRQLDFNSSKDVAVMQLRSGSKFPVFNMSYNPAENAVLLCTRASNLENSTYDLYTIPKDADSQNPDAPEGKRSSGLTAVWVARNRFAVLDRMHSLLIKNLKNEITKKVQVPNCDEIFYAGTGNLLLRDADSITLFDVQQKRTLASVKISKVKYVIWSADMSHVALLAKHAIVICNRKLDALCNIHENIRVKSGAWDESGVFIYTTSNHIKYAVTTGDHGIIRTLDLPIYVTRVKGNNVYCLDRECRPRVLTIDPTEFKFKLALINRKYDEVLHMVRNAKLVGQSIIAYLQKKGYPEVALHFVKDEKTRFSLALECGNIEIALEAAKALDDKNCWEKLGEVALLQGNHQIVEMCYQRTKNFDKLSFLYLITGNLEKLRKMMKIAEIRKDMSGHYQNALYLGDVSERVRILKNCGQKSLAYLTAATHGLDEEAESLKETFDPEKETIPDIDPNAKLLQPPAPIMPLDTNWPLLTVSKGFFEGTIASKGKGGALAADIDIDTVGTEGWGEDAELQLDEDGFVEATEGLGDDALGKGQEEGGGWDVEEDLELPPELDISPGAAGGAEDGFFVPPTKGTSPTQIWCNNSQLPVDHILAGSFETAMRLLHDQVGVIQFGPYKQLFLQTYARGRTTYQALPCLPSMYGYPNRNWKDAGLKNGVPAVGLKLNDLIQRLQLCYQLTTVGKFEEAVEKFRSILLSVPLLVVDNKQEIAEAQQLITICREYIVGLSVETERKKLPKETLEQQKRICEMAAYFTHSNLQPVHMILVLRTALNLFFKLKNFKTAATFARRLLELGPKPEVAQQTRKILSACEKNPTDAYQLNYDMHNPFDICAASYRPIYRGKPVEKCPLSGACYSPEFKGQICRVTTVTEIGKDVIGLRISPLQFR
UniProt Q9UBW8: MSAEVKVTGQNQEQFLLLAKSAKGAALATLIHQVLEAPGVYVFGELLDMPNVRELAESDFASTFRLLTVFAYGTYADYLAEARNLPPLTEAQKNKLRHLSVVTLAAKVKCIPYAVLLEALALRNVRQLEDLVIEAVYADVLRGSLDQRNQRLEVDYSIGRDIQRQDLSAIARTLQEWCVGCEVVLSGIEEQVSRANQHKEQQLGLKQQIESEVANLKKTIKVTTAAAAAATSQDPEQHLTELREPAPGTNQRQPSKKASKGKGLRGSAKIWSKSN
UniProt Q16630, whole entry, looked up: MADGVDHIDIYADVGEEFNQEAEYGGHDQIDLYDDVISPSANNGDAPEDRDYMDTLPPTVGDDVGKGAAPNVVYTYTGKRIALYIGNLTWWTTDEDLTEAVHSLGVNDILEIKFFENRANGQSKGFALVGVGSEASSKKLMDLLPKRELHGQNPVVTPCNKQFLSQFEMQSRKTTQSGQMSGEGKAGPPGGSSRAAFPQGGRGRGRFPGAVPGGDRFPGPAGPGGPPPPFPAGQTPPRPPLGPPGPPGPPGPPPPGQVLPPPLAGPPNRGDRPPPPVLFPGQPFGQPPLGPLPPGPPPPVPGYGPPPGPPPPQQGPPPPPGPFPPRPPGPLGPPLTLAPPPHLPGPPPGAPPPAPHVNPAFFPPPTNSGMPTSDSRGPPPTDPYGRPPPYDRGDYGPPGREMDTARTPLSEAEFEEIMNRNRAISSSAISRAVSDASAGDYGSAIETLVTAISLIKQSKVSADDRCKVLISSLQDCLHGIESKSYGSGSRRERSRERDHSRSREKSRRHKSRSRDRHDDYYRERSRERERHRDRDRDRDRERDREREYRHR
UniProt Q10570: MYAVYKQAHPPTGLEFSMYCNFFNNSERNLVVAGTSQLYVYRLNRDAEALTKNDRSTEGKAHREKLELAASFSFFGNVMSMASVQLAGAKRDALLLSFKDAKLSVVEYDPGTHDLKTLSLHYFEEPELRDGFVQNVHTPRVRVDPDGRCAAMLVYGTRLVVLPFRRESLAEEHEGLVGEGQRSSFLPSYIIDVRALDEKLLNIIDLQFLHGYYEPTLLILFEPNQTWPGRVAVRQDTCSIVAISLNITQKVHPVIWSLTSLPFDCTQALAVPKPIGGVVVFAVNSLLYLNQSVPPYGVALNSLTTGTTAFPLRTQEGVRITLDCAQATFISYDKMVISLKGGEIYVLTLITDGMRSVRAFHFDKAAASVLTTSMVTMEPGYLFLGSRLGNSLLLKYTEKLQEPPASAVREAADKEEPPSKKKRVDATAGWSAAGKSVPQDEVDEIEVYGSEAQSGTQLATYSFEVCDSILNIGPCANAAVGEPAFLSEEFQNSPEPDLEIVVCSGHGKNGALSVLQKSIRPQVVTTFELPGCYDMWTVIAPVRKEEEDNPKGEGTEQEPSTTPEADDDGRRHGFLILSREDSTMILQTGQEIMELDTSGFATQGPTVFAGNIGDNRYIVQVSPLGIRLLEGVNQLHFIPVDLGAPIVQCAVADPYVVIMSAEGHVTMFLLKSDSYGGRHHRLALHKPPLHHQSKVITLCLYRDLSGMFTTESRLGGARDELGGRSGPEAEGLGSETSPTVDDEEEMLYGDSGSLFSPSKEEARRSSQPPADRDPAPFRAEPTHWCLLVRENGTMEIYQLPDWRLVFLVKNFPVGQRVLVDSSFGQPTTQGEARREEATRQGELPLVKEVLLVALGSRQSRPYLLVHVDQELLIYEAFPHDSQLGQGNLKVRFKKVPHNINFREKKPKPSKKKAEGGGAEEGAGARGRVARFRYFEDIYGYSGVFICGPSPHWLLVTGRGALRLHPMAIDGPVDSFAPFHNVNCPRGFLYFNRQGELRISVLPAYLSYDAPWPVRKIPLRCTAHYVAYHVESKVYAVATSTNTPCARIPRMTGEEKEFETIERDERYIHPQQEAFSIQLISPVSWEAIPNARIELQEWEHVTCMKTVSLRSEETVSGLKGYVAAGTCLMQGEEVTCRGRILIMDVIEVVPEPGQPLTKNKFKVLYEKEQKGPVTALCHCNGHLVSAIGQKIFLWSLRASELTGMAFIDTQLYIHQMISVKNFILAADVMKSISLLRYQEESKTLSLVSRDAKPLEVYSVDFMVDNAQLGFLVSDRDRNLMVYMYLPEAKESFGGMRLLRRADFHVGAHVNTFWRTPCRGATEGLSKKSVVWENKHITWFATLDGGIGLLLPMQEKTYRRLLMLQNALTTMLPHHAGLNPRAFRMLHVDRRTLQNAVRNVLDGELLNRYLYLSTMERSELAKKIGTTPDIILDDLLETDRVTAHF
UniProt O95628: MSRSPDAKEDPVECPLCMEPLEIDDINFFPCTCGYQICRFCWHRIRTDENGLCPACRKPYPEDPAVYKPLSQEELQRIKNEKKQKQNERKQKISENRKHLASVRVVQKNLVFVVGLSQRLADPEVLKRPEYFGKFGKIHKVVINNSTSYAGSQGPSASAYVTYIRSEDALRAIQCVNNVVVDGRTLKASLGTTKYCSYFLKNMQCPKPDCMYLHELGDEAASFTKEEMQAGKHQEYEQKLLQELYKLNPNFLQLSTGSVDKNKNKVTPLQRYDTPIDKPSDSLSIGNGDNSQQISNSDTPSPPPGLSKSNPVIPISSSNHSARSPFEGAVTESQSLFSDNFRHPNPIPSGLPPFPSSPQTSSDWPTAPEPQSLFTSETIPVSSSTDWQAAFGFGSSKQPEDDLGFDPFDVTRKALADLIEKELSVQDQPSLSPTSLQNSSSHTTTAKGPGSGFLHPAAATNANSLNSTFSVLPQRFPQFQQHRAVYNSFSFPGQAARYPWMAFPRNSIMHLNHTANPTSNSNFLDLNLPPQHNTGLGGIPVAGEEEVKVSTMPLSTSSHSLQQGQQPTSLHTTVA

This is one part of the list.

What all share (experiment): log2 fold change, soluble protein after heating vs DMSO (PISA); higher = thermal stabilisation; K562 lysate, 10 uM; active = over 0.2 and 3.5 SD of the protein, either way, in both replicates (recomputed)
Compound in assay [1]: NCC(=O)Nc1ccc(-n2nc(C(F)(F)F)cc2-c2ccc3c(ccc4ccccc43)c2)cc1
The essentials: (§1)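 Soluble protein was defined as the supernatant remaining after 21,000xg for 90 min, following pooling of heated aliquots and adjustment to 0.5% NP-40 at 4°C. Before that, crude K562 extract at 1 mg/mL protein in PBS pH 7.4 with 1 mM MgCl2 was treated with 10 μM compound for 30 min and heated for 3 min across 48°C-58°C. Quantification used TMTpro 16plex LC-MS/MS with channel sums equalised, and values are log-two fold changes in thermal stability relative to solvent controls from duplicates.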

Compound in another assay: O=C(CCCCCCC(=O)Nc1ccccc1)NO [vorinostat]
The essentials:
as §1

Compound in the next assay: O=C(O)c1ccc2c(c1)nc(Nc1cccc(Cl)c1)c1ccncc12 [silmitasertib]
The essentials: as §1

Compound in assay [2]: O=C1NC(=O)C(c2cnc3ccccn23)=C1c1cn2c3c(cc(F)cc13)CN(C(=O)N1CCCCC1)CC2
The method, boiled down: as §1

Compound in a further assay: c1cn2cc(-c3ccc4cn[nH]c4c3)nc(Nc3ccc(N4CCOCC4)cc3)c2n1 [entospletinib]
The essentials: as §1

As to CNOT9 (UniProt Q92600), the log2 fold change in assay [1] was inactive: -0.022; in the assay with vorinostat, inactive: -0.113; with silmitasertib it was inactive: 0; in assay [2], inactive: 0.018; in the assay with entospletinib, inactive: 0.018.
Consider COPG1 (UniProt Q9Y678), for which the log2 fold change in assay [1] was inactive: 0.016; with vorinostat it was inactive: 0.033; with silmitasertib, inactive: 0.006; in assay [2] it was inactive: 0.006; in the assay with entospletinib, inactive: 0.02.
With CNP (UniProt P09543), the log2 fold change is inactive: -0.017 in assay [1]; active: -0.298 with vorinostat; inactive: -0.001 in the assay with silmitasertib; inactive: 0.059 in assay [2]; inactive: 0.017 in the assay with entospletinib.
The matching figures for COMMD7 (UniProt Q86VX2): inactive: -0.037, inactive: 0.018, inactive: -0.039, inactive: -0.015 and inactive: 0.003.
As to COPA isoform 2 (UniProt P53621), the log2 fold change in assay [1] was inactive: 0.006; with vorinostat, inactive: -0.009; with silmitasertib, inactive: 0.01; in assay [2], inactive: -0.002; with entospletinib it was inactive: 0.005.
Taken in the same sequence, the figures for COPS7A (UniProt Q9UBW8) were inactive: -0.042, inactive: 0.041, inactive: 0.01, inactive: 0.003 and inactive: 0.016.
Taken in the same sequence, the figures for CPSF6 isoform 2 (UniProt Q16630) were inactive: 0.005, inactive: 0.073, inactive: -0.016, inactive: 0.012 and inactive: 0.012.
Take CPSF1 (UniProt Q10570): the log2 fold change was inactive: 0.031 in assay [1]; inactive: -0.147 with vorinostat; inactive: 0.02 in the assay with silmitasertib; inactive: -0.026 in assay [2]; inactive: -0.027 with entospletinib.
Regarding CNOT4 isoform 9 (UniProt O95628), the log2 fold change in assay [1] is inactive: 0.036; in the assay with vorinostat it was inactive: 0.098; with silmitasertib it was inactive: 0.044; in assay [2], inactive: -0.031; in the assay with entospletinib it was inactive: 0.009.
